The target in this assay is T1, STING-HA (HA-tagged Stimulator of interferon genes) (UniProt Q3TBT3).
T1 sequence: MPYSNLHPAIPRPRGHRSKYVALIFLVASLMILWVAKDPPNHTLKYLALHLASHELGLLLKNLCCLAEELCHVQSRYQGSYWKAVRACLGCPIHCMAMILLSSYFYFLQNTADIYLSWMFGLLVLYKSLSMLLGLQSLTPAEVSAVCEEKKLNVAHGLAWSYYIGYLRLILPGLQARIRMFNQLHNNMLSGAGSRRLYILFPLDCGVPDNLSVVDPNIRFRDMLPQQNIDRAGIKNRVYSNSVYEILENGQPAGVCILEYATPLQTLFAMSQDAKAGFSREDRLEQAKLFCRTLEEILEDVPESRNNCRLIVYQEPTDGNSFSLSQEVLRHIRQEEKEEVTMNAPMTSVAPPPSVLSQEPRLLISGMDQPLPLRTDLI
The assay is described as follows: co-IP; 293T cells transfected with V5-tagged TRAF2, TRAF3 or TRAF6 and CD40-DDK/Myc, STING-HA or both; whole-cell extract precipitated with anti-Myc or anti-HA magnetic beads; blotted with anti-V5 (TRAFs), anti-HA (STING) or anti-Myc (CD40).

These are yes or no findings as the source states them, for the method shown. In cells and extracts the contact can be indirect. A result given as binding can be weak or reduced; the word gives no strength. Where a sequence is shown, tags or fusion partners need not be part of it.

In the case of “V5-tagged TRAF3 (TNF receptor associated factor 3)”, the binding entry is given as “binds”.
Take “V5-tagged TRAF6 (TNF receptor associated factor 6)”: the binding result is “binds”.

For the origin of these results see publication PMC5055354.
